In paper PMC12040169 (PLOS Biology, 2025):
This is one part of the list.

What follows are compounds tested on T1, CTL2-GFP (C. trachomatis L2/434/Bu, GFP-expressing). Conditions: bulk GFP, single well; 28.5 h, 10 µM; inhibitor.
T1 construct: L2/434/Bu, GFP-expressing
Parameters: species or system HeLa; Intracellular C. trachomatis growth in HeLa cells, bulk GFP fluorescence relative to DMSO
In the case of `O=C(NC(=S)Nc1cccc2ncccc12)c1ccc(N2CCOCC2)c([N+](=O)[O-])c1` [CBK267608], the “% of control remaining” value is reported as 109.675%. With `CN(C)CCCn1cnc2c1c(=O)[nH]c(=O)n2Cc1ccccc1` [CBK291234] the “% of control remaining” value was 122.775%. `Nc1ncc(-c2cccc(OC(F)(F)F)c2)nc1-c1ccc(CCC(=O)O)cc1` [CBK064071] was tested, and the “% of control remaining” value was 121.513%. `COc1ccc(N2CCN(c3cc(-c4ccc(OC(F)(F)F)cc4)ncn3)CC2)cc1OC` [CBK091032] was tested, and the “% of control remaining” value was 182.275%. With `COc1ccc(-c2nc(NC(=O)c3cccc(S(C)(=O)=O)c3)cnc2-c2ccc(F)cc2)cc1` [CBK037110] the “% of control remaining” value was 65.6662%. For `Cc1ccccc1CN(CC(=O)NC1CC1)S(=O)(=O)c1ccc(Cl)cc1` [CBK265757], the “% of control remaining” value was 171.559%. For `CC(=O)Nc1ccc(CN2CCCC(c3cc4ncccc4[nH]3)C2)cc1` (stereo not drawn) [CBK283402], the “% of control remaining” value was 132.645%. `Cc1cccc(=O)n1CCC(=O)N1CCCCC1CN1CCOCC1` (stereo not drawn) [CBK306528] was tested, and the “% of control remaining” value was 87.5161%. With `CCN(CC(=O)NC(C)C)Cc1nc(-c2cccc(C(F)(F)F)c2)no1` [CBK306039] the “% of control remaining” value was 146.158%. In the case of `O=C(CNC(=O)c1ccncc1)N/N=C/c1c(O)ccc2ccccc12` [CBK261378], the “% of control remaining” value is reported as 74.3552%. With `CC(C)[C@H](NC(=O)C1CC(=O)N(c2ccc(F)cc2)C1)C(=O)N1CCC(C(=O)O)CC1` (stereo partly drawn) [CBK286669] the “% of control remaining” value was 131.03%. In the case of `CCn1c2ccccc2c2cc(CN3CCN(Cc4cccc(F)c4)CC3)ccc21` [CBK263143], the “% of control remaining” value is reported as 100%. For `Cc1c(CN(C)CC(=O)Nc2ccc(Br)cc2Cl)cnn1C` [CBK304214], the “% of control remaining” value was 78.3782%. For `CC(=O)Nc1c(Nc2ccccc2)c2ccccc2oc1=O` [CBK261756], the “% of control remaining” value was 114.154%. For `CCC1CCCCN1C(=O)c1oc2ccccc2c1C` (stereo not drawn) [CBK078548], the “% of control remaining” value was 133.724%. With `C=CCN1C(=O)CC2(C1=O)C(=O)N(CCn1cnc3c1c(=O)n(C)c(=O)n3C)c1ccc(Cl)cc12` (stereo not drawn) [CBK075410] the “% of control remaining” value was 163.695%. With `COCCn1nnnc1C(c1cc2cc(C)ccc2[nH]c1=O)N1CCN(C(=O)c2ccco2)CC1` (stereo not drawn) [CBK111562] the “% of control remaining” value was 132.17%. In the case of `CCN(Cc1ccc(C#N)cc1F)C(=O)Nc1cc(C)nn1C` [CBK305730], the “% of control remaining” value is reported as 95.3609%. With `O=C(O)c1cnc(-c2ccccc2)nc1` [CBK261272] the “% of control remaining” value was 89.8047%. For `O=C(NCc1ccccc1)NC(=O)C1CCN(CCCOc2cccc3ccccc23)CC1` [CBK034856], the “% of control remaining” value was 97.0168%. In the case of `O=[N+]([O-])c1cccnc1Oc1cccc(Cl)c1Cl` [CBK002596], the “% of control remaining” value is reported as 112.831%.
